We go through one molecule from publication PMC7010797.

Experiment [1] addresses wild type group II chaperonin from Methanococcus maripaludis (MmCpn WT) (Methanococcus maripaludis). Put plainly: native gel or EMSA; non-denaturing 1% agarose gel (1 mM MgCl2, 80 mM MOPS pH 7.4); 0.25 uM MmCpn mixed with 1 uM denatured Cy3-rhodanese in ATPase buffer, 10 min on ice, aggregates spun out; then no ATP, 1 mM ATP or ATP-AlFx for 1 h at 37 C; Cy3 fluorescence co-migrating with the chaperonin band (Sypro Ruby); both purified.

Experiment [2] has as its target MmCpn•Cys-0, cysteine-less variant of the Methanococcus maripaludis group II chaperonin (Methanococcus maripaludis). Described as above.

Results are given in words; binding and its absence hold for the method and conditions named. Binding can be weak; no strength is given.

B1: denatured Cy3-maleimide labeled bovine rhodanese (enzyme, UniProt P00586 1-297)
chain: MVHQVLYRALVSTKWLAESVRAGKVGPGLRVLDASWYSPGTREARKEYLERHVPGASFFDIEECRDKASPYEVMLPSEAGFADYVGSLGISNDTHVVVYDGDDLGSFYAPRVWWMFRVFGHRTVSVLNGGFRNWLKEGHPVTSEPSRPEPAIFKATLNRSLLKTYEQVLENLESKRFQLVDSRAQGRYLGTQPEPDAVGLDSGHIRGSVNMPFMNFLTEDGFEKSPEELRAMFEAKKVDLTKPLIATCRKGVTACHIALAAYLCGKPDVAIYDGSWFEWFHRAPPETWVSQGKGGKA
modifications: Cy3-maleimide label (positions not stated)
As for B1, the binding entry in experiment [1] and in experiment [2] was “binds” throughout.
